For 25 compounds, T/C and survivor count results are on record in PubChem BioAssay AID264 (DTP/NCI, 2004).

The list does not hold the whole screen: it is rich in T/C values a quarter to a half above the control, in often repeated tests (any T/C) and in doses without a T/C. Further doses and runs are listed elsewhere. T/C: endpoint of the treated group in % of that of the vehicle group. Schedule codes are those of the source, taken here to give the interval after Q, in days (D) or hours (H), and the number of doses after X. Some T/C values carry the count of animals alive at the toxicity check (mostly the fifth day); without a count, all were alive then. Some entries give survivors of the animals treated and no T/C: the source holds a T/C of zero for them, seemingly a mark for toxic or unscored doses. Survivors were counted at the toxicity check, usually on the fifth day, unless a day is given; later deaths do not show.

In the experiment the test system is nude mice, LX-1 lung xenograft intrarenal, tumor weight T/C. The experiment in a line: NCI In Vivo Anticancer Drug Screen. Data for tumor model Human Lung LX-1 Xenograft (intrarenal inoculation) in NU/NU Swiss (nude) mice. Conditions: T/C endpoint: mean tumor weight change, higher T/C = larger tumour; for T/C: evaluated on day 11. The procedure:
The antitumor activity of compounds was measured in mice bearing transplantable tumors. Survival or tumor size were measured and the results are expressed as the measurement made in the treated group (T) divided by the measurement made in the vehicle treated control group (C). The tumor model used in this assay is Human Lung LX-1 Xenograft (intrarenal inoculation) in NU/NU Swiss (nude) mice
A general note: In xenograft studies the graft and the host belong to different species.

The mark [1] stands for this setting: dose: 300.0 mg/kg/injection, schedule: Q04DX003 (sc), vehicle: saline with Tween-80.
[2] abbreviates: dose: 600.0 mg/kg/injection, schedule: Q04DX003 (sc), vehicle: saline with Tween-80.
Where [3] appears, read: dose: 1200.0 mg/kg/injection, schedule: Q04DX003 (sc), vehicle: saline with Tween-80.
Where [4] appears, read: dose: 400.0 mg/kg/injection, schedule: Q04DX003 (sc), vehicle: saline.
The mark [5] stands for this setting: dose: 800.0 mg/kg/injection, schedule: Q04DX003 (sc), vehicle: saline.

For the compound `O=C1SC(c2ccccc2)=S=C1c1ccccc1`, the T/C under setting [1] was 127 % of control.
For `O=C1NCC(Br)C(=O)N1` (stereo not drawn), the survivor count under setting [2] was 1 of 6 on day 11 and the survivor count under setting [3] is 0 of 6 on day 11.
Regarding `COc1cccc2c1C(=O)c1c(O)c3c(c(O)c1C2=O)C[C@@](O)(/C(CO)=N/NC(=O)c1ccc(Cl)c(Cl)c1)C[C@@H]3OC1CC(N)C(O)C(C)O1` (stereo partly drawn), the survivor count is, setting by setting: (dose: 32.0 mg/kg/injection, schedule: Q01DX010 (sc), vehicle: water) 0 of 3 on day 11; (dose: 64.0 mg/kg/injection, schedule: Q01DX010 (sc), vehicle: water) 0 of 3 on day 11.
Consider `CN1C(=O)CC2(CCN(CCCC(=O)c3ccc(F)cc3)CC2)C1=O`, for which, under “dose: 37.5 mg/kg/injection, schedule: Q04DX003 (sc), vehicle: suspension in saline”, the T/C is 125 % of control.
In the case of `NC(=S)c1cn(C2OC(CO)C(O)C2O)c2ncnc(N)c12` (stereo not drawn), the survivor count runs as follows: (dose: 25.0 mg/kg/injection, schedule: Q04DX003 (sc), vehicle: suspension in saline) 3 of 6 on day 11; (dose: 50.0 mg/kg/injection, schedule: Q04DX003 (sc), vehicle: suspension in saline) 0 of 6 on day 11.
In the case of `COc1cccc2c1C(=O)c1c(O)c3c(c(O)c1C2=O)C[C@@](O)(C(C)=O)C[C@@H]3OC1CC(N(C)C)C(O)C(C)O1` (stereo partly drawn), the survivor count reads like this: (dose: 8.0 mg/kg/injection, schedule: Q01DX010 (sc), vehicle: water) 0 of 3 on day 11; (dose: 16.0 mg/kg/injection, schedule: Q01DX010 (sc), vehicle: water) 0 of 3 on day 11; (dose: 24.0 mg/kg/injection, schedule: Q04DX003 (sc), vehicle: water) 1 of 3 on day 11; (dose: 48.0 mg/kg/injection, schedule: Q04DX003 (sc), vehicle: water) 0 of 3 on day 11.
Regarding `O=C1C=CC(=O)N1c1ccc(Cl)cc1`, for the setting “dose: 300.0 mg/kg/injection, schedule: Q04DX003 (sc), vehicle: Klucel (hydroxypropylcellulose) (HPC)”, the survivor count is on record as 3 of 6 on day 11.
For `C[PH+](C)C.C[PH+](C)C.[Au]`, under “dose: 40.0 mg/kg/injection, schedule: Q04DX003 (sc), vehicle: suspension in saline”, the survivor count was 0 of 6 on day 11.
`O=C(Nc1ccc(C2=NCCN2)cc1)c1ccc(C(=O)Nc2ccc(C3=NCCN3)cc2)c(Cl)c1`: the survivor count (dose: 100.0 mg/kg/injection, schedule: Q01DX010 (sc), vehicle: water) was 0 of 3 on day 11.
Consider `COC1C(/C=C/C(C)=O)OC2OC(C)(C)OC21` (stereo not drawn), for which, where the note is “dose: 600.0 mg/kg/injection, schedule: Q04DX003 (sc), vehicle: suspension in saline”, the survivor count was 0 of 6 on day 11.
For `Cc1nnc2ncccn12`, the T/C under setting [4] was 139 % of control. In addition, the survivor count under setting [5] is reported as 0 of 6 on day 11.
For `CCNC(=O)OCc1c(COC(=O)NCC)c(-c2ccc(Cl)c(Cl)c2)n2c1CCC2`, the T/C (dose: 12.5 mg/kg/injection, schedule: Q01DX010 (sc), vehicle: saline with Tween-80) is 149 % of control [2 of 3 alive on day 11] and the T/C (dose: 100.0 mg/kg/injection, schedule: Q01DX010 (sc), vehicle: saline with Tween-80) was 128 % of control. For the same compound, under “dose: 200.0 mg/kg/injection, schedule: Q01DX010 (sc), vehicle: saline with Tween-80”, the survivor count was 0 of 3 on day 11.
Take `O=C/C(Cl)=C(/Cl)C(=O)O`: the survivor count (dose: 80.0 mg/kg/injection, schedule: Q01DX010 (sc), vehicle: saline with Tween-80) is listed as 0 of 3 on day 11 and the survivor count (dose: 160.0 mg/kg/injection, schedule: Q01DX010 (sc), vehicle: saline with Tween-80) is reported as 0 of 3 on day 11.
`NC(=O)c1[nH]nc(C2OC(CO)C(O)C2O)c1O` (stereo not drawn): the survivor count by setting is: (dose: 5.0 mg/kg/injection, schedule: Q04DX003 (sc), vehicle: saline) 3 of 6 on day 11; (dose: 10.0 mg/kg/injection, schedule: Q04DX003 (sc), vehicle: saline) 3 of 6 on day 11; (dose: 20.0 mg/kg/injection, schedule: Q04DX003 (sc), vehicle: saline) 2 of 6 on day 11; (dose: 40.0 mg/kg/injection, schedule: Q04DX003 (sc), vehicle: saline) 1 of 6 on day 11.
Regarding `C[Si](C)(C)OSc1ccccc1[N+](=O)[O-]`, the T/C (dose: 1200.0 mg/kg/injection, schedule: Q04DX003 (sc), vehicle: Klucel (hydroxypropylcellulose) (HPC)) was 145 % of control.
As for `NC(=O)c1cn(C2OC(CO)C(O)C2O)c2ncnc(N)c12` (stereo not drawn), the survivor count (dose: 4.0 mg/kg/injection, schedule: Q01DX010 (sc), vehicle: saline) is recorded as 0 of 3 on day 11.
On to `NC(Cc1ccc(N(CCCl)CCCl)cc1)C(=O)O` (stereo not drawn), for which, for the setting “dose: 80.0 mg/kg/injection, schedule: Q04DX003 (sc), vehicle: Klucel (hydroxypropylcellulose) (HPC)”, the survivor count is 0 of 6 on day 11.
`O=C(CCCN1CCC(O)(c2cccc(C(F)(F)F)c2)CC1)c1ccc(F)cc1`: the T/C (dose: 25.0 mg/kg/injection, schedule: Q01DX010 (sc), vehicle: Klucel (hydroxypropylcellulose) (HPC)) was 126 % of control [2 of 3 alive on day 11]. For the same compound, the survivor count by setting is: (dose: 100.0 mg/kg/injection, schedule: Q01DX010 (sc), vehicle: Klucel (hydroxypropylcellulose) (HPC)) 1 of 3 on day 11; (dose: 200.0 mg/kg/injection, schedule: Q01DX010 (sc), vehicle: Klucel (hydroxypropylcellulose) (HPC)) 0 of 3 on day 11.
With `Cc1cc(SCC(=O)c2ccc(Br)cc2)cc(C)[o+]1`, the T/C (dose: 100.0 mg/kg/injection, schedule: Q01DX010 (sc), vehicle: saline) is 129 % of control [2 of 2 alive on day 11] and the T/C (dose: 400.0 mg/kg/injection, schedule: Q01DX010 (sc), vehicle: saline) was 129 % of control.
Take `CN(C(=S)S(=O)(=O)C12CC3CC(CC(C3)C1)C2)c1ccccc1`: the T/C (dose: 200.0 mg/kg/injection, schedule: Q04DX003 (sc), vehicle: Klucel (hydroxypropylcellulose) (HPC)) was 147 % of control [5 of 6 alive on day 11].
With `[N-]=[N+]=CC(=O)CCC(=O)C=[N+]=[N-]`, the survivor count runs as follows: (dose: 6.0 mg/kg/injection, schedule: Q01DX010 (sc), vehicle: DMSO) 1 of 3 on day 11; (dose: 12.0 mg/kg/injection, schedule: Q01DX010 (sc), vehicle: DMSO) 0 of 3 on day 11.
Turning to `Cc1c2cc(Cl)c3ccccc3c2c[n+]2ccccc12`, where the note is “dose: 2400.0 mg/kg/injection, schedule: Q04DX003 (sc), vehicle: saline with Tween-80”, the survivor count is 2 of 6 on day 11.
As for `C(CC1CO1)C1CO1` (stereo not drawn), the survivor count runs as follows: (dose: 200.0 mg/kg/injection, schedule: Q01DX010 (sc), vehicle: saline) 1 of 3 on day 11; under setting [4], 0 of 6 on day 11; under setting [5], 0 of 6 on day 11; (dose: 1600.0 mg/kg/injection, schedule: Q04DX003 (sc), vehicle: saline) 0 of 6 on day 11; (dose: 3200.0 mg/kg/injection, schedule: Q04DX003 (sc), vehicle: saline) 0 of 6 on day 11.
For the compound `CC1(C)OCC(CO)(Nc2nc(N3CC3)nc(N3CC3)n2)CO1`, the survivor count is listed as 1 of 3 on day 11 (dose: 2.5 mg/kg/injection, schedule: Q01DX010 (sc), vehicle: saline); 0 of 3 on day 11 (dose: 5.0 mg/kg/injection, schedule: Q01DX010 (sc), vehicle: saline); 0 of 3 on day 11 (dose: 10.0 mg/kg/injection, schedule: Q01DX010 (sc), vehicle: saline).
Turning to `CCCCN(CCCC)C(Cl)=Nc1ccccc1`, the T/C was 134 % of control (dose: 50.0 mg/kg/injection, schedule: Q04DX003 (sc), vehicle: other); 125 % of control (dose: 100.0 mg/kg/injection, schedule: Q04DX003 (sc), vehicle: other); 142 % of control (dose: 200.0 mg/kg/injection, schedule: Q04DX003 (sc), vehicle: other). The survivor count is on record as 1 of 3 on day 11 under setting [1], 0 of 3 on day 11 under setting [2] and 0 of 3 on day 11 under setting [3].
